Results are given in words; binding and its absence hold for the method and conditions named. In cells and extracts the contact can be indirect. These calls come from enrichment with a bait or labelling near it, and not all partners need be listed.
Target: GST-fused HRAS protein (GST-HRAS) (UniProt P01112)
Experiment: affinity purification with mass spectrometry; purified GST-HRAS (GST as control) incubated overnight at 4 °C with pre-cleared human HCC tumor or paired normal tissue lysates; glutathione agarose beads 2 h at 4 °C; washed three times with RIPA buffer; SDS-PAGE, 22 gel slices, LC-MS/MS; only the target purified

The chains behind the UniProt entries cited, without tags or fusion partners. Residues count along the entry.
UniProt P06241: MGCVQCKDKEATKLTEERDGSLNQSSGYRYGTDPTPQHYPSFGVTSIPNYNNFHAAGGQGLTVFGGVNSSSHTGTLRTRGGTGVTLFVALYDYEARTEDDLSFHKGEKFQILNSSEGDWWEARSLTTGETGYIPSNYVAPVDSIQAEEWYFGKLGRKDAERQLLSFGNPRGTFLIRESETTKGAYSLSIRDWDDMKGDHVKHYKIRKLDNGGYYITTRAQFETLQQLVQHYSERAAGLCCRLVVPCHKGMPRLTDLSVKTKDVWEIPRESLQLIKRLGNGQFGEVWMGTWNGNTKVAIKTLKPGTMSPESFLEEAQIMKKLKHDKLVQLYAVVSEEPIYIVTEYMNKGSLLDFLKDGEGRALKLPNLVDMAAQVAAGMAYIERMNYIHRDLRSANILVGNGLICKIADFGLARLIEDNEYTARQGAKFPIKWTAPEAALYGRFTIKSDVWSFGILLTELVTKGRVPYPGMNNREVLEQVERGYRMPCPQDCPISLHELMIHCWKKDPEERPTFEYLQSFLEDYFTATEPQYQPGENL
UniProt Q01638, residues 19-556: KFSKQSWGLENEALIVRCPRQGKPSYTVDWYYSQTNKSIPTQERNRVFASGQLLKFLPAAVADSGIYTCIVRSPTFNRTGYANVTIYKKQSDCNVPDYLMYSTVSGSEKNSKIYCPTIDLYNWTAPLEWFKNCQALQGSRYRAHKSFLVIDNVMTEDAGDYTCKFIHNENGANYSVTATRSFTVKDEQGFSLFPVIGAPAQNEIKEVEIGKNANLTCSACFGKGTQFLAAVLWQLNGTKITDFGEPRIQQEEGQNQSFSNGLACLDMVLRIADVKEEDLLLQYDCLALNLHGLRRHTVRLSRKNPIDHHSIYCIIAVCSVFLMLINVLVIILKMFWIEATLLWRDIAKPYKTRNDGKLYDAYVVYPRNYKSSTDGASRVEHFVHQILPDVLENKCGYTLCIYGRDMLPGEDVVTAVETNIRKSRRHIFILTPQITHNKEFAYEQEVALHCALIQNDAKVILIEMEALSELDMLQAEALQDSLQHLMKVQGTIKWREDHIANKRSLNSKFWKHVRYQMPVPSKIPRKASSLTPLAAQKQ
UniProt P53779: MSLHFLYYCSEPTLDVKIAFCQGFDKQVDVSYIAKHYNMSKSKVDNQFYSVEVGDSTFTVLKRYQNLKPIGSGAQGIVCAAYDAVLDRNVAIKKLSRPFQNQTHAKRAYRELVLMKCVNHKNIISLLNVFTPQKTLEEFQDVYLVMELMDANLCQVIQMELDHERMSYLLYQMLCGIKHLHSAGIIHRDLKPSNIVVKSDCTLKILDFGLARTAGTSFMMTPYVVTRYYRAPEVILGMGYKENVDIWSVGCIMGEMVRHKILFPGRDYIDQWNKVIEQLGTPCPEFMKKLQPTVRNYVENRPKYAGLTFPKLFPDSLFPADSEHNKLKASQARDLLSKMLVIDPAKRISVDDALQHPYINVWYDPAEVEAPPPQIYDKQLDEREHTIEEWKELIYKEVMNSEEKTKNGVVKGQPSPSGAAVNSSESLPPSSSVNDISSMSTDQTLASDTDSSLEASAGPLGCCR
UniProt Q9ULT8: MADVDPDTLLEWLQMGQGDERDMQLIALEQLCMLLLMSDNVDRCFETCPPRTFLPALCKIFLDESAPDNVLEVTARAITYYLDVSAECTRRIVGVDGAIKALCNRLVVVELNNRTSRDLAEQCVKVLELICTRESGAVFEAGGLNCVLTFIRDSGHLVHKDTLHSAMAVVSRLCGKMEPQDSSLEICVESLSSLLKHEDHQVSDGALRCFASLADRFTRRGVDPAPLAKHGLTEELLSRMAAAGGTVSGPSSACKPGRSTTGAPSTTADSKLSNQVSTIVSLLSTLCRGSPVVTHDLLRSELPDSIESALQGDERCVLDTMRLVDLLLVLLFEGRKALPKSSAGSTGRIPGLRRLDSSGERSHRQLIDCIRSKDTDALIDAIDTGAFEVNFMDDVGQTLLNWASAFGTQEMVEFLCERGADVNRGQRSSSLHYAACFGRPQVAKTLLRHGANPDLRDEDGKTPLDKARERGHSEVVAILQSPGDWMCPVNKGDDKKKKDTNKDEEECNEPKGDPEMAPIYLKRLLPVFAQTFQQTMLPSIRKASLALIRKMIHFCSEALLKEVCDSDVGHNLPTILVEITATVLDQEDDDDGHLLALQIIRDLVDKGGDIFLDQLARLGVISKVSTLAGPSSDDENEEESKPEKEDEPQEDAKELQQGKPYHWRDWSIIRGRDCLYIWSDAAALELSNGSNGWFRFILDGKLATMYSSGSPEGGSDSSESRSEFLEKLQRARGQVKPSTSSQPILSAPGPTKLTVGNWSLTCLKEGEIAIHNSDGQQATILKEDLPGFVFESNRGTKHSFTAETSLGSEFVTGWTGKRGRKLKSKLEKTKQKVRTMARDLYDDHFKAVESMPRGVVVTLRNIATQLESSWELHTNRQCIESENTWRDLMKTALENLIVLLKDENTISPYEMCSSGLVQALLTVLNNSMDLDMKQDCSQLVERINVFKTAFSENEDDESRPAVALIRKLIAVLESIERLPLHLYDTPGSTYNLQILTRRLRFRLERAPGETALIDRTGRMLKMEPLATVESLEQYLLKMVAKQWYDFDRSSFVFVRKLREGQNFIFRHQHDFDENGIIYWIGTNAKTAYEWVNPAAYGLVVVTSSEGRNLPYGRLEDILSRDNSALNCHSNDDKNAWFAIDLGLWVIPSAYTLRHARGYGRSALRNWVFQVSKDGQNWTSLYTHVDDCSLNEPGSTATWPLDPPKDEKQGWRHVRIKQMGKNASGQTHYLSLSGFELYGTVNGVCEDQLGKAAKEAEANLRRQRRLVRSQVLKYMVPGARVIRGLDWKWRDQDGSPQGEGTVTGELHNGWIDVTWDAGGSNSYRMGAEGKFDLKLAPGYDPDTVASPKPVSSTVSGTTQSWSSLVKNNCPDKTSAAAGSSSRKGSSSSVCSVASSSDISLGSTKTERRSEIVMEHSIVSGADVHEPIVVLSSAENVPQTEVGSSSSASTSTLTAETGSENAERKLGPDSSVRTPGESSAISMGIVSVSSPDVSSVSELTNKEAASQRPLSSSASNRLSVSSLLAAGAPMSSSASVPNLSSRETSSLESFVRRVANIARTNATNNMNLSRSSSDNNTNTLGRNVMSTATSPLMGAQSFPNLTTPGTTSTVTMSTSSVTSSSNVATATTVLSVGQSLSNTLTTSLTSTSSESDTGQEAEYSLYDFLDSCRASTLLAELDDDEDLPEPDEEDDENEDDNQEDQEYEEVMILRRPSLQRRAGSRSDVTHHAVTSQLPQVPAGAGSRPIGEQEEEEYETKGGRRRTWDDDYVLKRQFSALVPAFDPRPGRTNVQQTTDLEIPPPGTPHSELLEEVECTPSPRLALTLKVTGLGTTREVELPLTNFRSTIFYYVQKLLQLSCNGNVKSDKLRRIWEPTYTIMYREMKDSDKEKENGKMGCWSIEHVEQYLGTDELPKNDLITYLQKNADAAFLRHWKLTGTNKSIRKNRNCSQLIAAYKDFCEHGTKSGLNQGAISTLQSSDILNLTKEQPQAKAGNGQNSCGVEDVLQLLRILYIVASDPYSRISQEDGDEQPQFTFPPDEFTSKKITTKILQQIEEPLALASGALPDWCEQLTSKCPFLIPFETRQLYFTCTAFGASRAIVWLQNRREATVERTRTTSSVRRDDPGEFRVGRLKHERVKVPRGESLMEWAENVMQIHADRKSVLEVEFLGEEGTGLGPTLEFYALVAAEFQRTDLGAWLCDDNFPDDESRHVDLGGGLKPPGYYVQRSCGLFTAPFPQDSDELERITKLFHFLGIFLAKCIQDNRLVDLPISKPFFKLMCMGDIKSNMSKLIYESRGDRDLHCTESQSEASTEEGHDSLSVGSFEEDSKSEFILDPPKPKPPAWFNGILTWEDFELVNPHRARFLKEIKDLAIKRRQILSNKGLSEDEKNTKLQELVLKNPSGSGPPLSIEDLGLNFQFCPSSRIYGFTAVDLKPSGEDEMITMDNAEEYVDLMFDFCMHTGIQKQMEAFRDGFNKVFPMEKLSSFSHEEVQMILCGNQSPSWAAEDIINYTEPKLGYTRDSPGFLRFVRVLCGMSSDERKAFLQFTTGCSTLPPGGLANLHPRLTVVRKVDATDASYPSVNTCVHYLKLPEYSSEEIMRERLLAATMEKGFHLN

binding	Substance
binds	Fyn (from UniProt P06241 1-537)
binds	Interleukin 1 receptor like 1 (IL1RL1), from human liver tissue (from UniProt Q01638 19-556)
binds	JNK3 (from UniProt P53779 1-464)
binds	hect domain containing E3 ubiquitin protein ligase 1 (HectD1) (from UniProt Q9ULT8 1-2610)

From publication PMC6336889
